No constants are given. Whether binding was seen depends on the method and setting. Binding seen in cells or lysates may run through a third protein. Some results given as binding are weak or reduced against the parent protein; the word gives no strength.
Molecular target: T1, human TXNIP overexpressed in 293T cells (human) (UniProt Q9H3M7)
T1 sequence: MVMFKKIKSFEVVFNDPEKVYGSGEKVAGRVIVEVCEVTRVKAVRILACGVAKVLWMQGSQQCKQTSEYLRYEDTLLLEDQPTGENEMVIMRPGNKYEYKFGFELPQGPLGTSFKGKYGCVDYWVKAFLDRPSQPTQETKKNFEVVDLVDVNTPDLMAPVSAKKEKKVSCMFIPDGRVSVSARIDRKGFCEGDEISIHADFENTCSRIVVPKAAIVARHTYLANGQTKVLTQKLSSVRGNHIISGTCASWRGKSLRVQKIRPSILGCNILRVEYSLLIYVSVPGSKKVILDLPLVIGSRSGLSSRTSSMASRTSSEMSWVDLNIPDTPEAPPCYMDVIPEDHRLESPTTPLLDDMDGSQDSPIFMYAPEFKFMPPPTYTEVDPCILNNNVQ
Assay: pull-down; GST pull-down from 293T cells overexpressing TXNIP and p38 (wild type or mutants); also with H2O2 or SB203580 treatment

Protein sequences, listed by entry. Tags and fused reporters are not part of them. Lines headed by an entry give the natural chain unless they say otherwise; changes in a name come on top. Chains listed by the source or under a name are the forms on record and can include a tag or linker.
UniProt Q16539: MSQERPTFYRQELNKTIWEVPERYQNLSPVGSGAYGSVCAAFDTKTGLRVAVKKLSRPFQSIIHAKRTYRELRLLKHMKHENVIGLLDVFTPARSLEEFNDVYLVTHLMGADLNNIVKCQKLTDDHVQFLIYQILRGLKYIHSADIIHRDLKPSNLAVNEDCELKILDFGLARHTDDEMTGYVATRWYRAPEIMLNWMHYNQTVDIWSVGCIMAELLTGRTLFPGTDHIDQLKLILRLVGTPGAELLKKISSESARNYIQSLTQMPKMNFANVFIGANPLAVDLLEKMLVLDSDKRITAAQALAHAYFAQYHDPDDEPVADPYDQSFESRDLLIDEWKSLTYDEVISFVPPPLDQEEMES
p38AF, kinase-dead dominant-negative mutant of p38alpha (Q16539, form named): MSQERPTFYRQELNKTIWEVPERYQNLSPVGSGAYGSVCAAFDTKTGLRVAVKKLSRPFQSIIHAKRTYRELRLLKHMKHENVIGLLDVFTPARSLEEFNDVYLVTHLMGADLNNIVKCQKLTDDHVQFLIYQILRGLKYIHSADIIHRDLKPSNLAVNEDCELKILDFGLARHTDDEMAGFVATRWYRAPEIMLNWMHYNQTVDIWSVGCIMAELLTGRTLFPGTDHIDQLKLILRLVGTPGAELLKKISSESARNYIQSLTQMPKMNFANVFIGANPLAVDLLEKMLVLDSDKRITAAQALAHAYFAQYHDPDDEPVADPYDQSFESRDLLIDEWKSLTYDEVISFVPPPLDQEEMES

binding, binds:
human p38alpha overexpressed in 293T cells (from UniProt Q16539 1-360) (enzyme)
p38(D313A/D315A/D316A) (from UniProt Q16539 1-360) (enzyme)
p38(E160A/D161A) (from UniProt Q16539 1-360) (enzyme)
p38(I116A) (from UniProt Q16539 1-360) (enzyme)
p38AF, kinase-dead dominant-negative mutant of p38alpha (from UniProt Q16539 1-360) (enzyme)
